Values of other authors as cited in US9682049B2, “Non-racemic mixtures of various ratios of D- and L-methadone and methods of treating pain using the same” (priority 2015, dated 2017).

Tested on: C-fiber evoked response
Details: Carpenter et al. 2000; cited from earlier work

Structure (SMILES) | inhibition of C-fiber evoked response
CCC(=O)C(CC(C)N(C)C)(c1ccccc1)c1ccccc1 (racemic) [racemic methadone, methadone] | inhibited C-fiber evoked response similar to morphine
CCC(=O)C(C[C@H](C)N(C)C)(c1ccccc1)c1ccccc1 [D-methadone, (S)-(+)-methadone] | weaker but similar inhibitory activity
